# Measurements reported in PubChem BioAssay AID1259308 (NCATS, 2017).
# Assay: 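Genes whose loss raises luciferase production in HEK293 cells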 (primary screen)
# Cells: human HEK293 embryonic kidney cells stably expressing firefly luciferase (HEK-CMV-Luc2-Hygro)
# Knock-down reagent: single siRNA against human genes, 0.8 pmol siRNA per well
# Time to read-out: 72 h
# Measurement: 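Reporter luminescence and viable-cell signal on separate replicate plates, given as percent of non-targeting control and median/MAD z-scores, plus per-cell luciferase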
# Direction: total luciferase, z-score and total luciferase, % of control: higher = more reporter protein produced; luciferase per cell, z-score: higher = more reporter output per viable cell; viable cells, % of control: higher = more viable cells
# Hit rule: 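Active when the median/MAD z-score for overall luciferase is greater than 3; a gene was taken forward for validation with new siRNAs if at least two of its three siRNAs passed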
# Calls: active = raised luciferase; inactive = no rise
# This is a random part of about 59,000 reagents tested. Of all reagents, about 1,510 (2.6%) got an active call. 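Calls use total luciferase alone and ignore viability, so some active siRNAs may act by altering cell number.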 The numbers tell different reagents against one gene apart.
target gene,reagent,"total luciferase, z-score","total luciferase, % of control","luciferase per cell, z-score","viable cells, % of control",outcome
DIAPH3 (GeneID 81624),1,-0.774,66.5,-1.52,111,inactive
DIAPH3 (GeneID 81624),2,-0.247,77,1.12,64,inactive
DIAPH3 (GeneID 81624),3,-0.846,65.1,-1.24,101,inactive
HOXD3 (GeneID 3232),1,0.0486,82.9,0.268,86.3,inactive
HOXD3 (GeneID 3232),2,-1.04,61.1,-1.03,89.7,inactive
HOXD3 (GeneID 3232),3,1.79,117,1.57,86.8,inactive
BCAS1 (GeneID 8537),1,1.69,116,3.08,57.3,inactive
BCAS1 (GeneID 8537),2,-0.106,79.8,-0.379,98.5,inactive
BCAS1 (GeneID 8537),3,1.98,121,1.96,81,inactive
ZFPM2 (GeneID 23414),1,0.589,93.6,0.596,89.4,inactive
ZFPM2 (GeneID 23414),2,-2.05,41,-1.91,75.9,inactive
ZFPM2 (GeneID 23414),3,0.516,92.1,0.388,93,inactive
PROCA1 (GeneID 147011),1,-1.49,52.2,-1.02,76.3,inactive
PROCA1 (GeneID 147011),2,1.81,118,1.57,87.2,inactive
PROCA1 (GeneID 147011),3,-0.936,63.3,-1.46,104,inactive
NYNRIN (GeneID 57523),1,-1.23,57.4,-0.977,82.9,inactive
NYNRIN (GeneID 57523),2,-0.013,81.6,-0.427,102,inactive
NYNRIN (GeneID 57523),3,-0.536,71.2,-0.226,84.5,inactive
SMAD1 (GeneID 4086),1,0.196,85.8,-0.0405,96.9,inactive
SMAD1 (GeneID 4086),2,-1.66,48.9,-1.62,83.8,inactive
SMAD1 (GeneID 4086),3,1.25,107,1.29,84.9,inactive
SYT1 (GeneID 6857),1,0.501,91.9,0.239,96.4,inactive
SYT1 (GeneID 6857),2,0.977,101,1.26,81.3,inactive
SYT1 (GeneID 6857),3,-0.299,75.9,-0.13,87.8,inactive
OR2W1 (GeneID 26692),1,0.14,84.7,0.0294,93.9,inactive
OR2W1 (GeneID 26692),2,4.44,170,2.77,91.8,active
OR2W1 (GeneID 26692),3,0.833,98.4,1.31,77.9,inactive
FAM241B (GeneID 219738),1,-0.851,65,0.109,70.5,inactive
FAM241B (GeneID 219738),2,-0.00632,81.8,-0.201,96.3,inactive
FAM241B (GeneID 219738),3,-1.25,57,-1.2,87.2,inactive

A few values from above:
Under “viable cells, % of control”, FAM241B (GeneID 219738) #2 shows 96.3
Value of BCAS1 (GeneID 8537) #2 in “viable cells, % of control”: 98.5
Under “viable cells, % of control”, SMAD1 (GeneID 4086) #1 shows 96.9
NYNRIN (GeneID 57523) #1, total luciferase, z-score: -1.23
FAM241B (GeneID 219738) #3, luciferase per cell, z-score → -1.2
DIAPH3 (GeneID 81624) #3, viable cells, % of control = 101

The list goes on.
target gene,reagent,"total luciferase, z-score","total luciferase, % of control","luciferase per cell, z-score","viable cells, % of control",outcome
CSTA (GeneID 1475),1,-2.14,39.2,-2.96,95.7,inactive
CSTA (GeneID 1475),2,3,142,2,93.5,active
CSTA (GeneID 1475),3,-2.13,39.5,-1.83,71.3,inactive
VASP (GeneID 7408),1,0.583,93.5,0.124,101,inactive
VASP (GeneID 7408),2,-1.95,43.1,-0.308,52.2,inactive
VASP (GeneID 7408),3,1.14,104,0.00366,117,inactive
ABRAXAS2 (GeneID 23172),1,0.193,85.7,-0.316,104,inactive
ABRAXAS2 (GeneID 23172),2,-0.804,65.9,-0.211,77.8,inactive
ABRAXAS2 (GeneID 23172),3,-0.242,77.1,-0.527,98.9,inactive
FANK1 (GeneID 92565),1,-0.678,68.4,-0.837,95.3,inactive
FANK1 (GeneID 92565),2,-0.127,79.4,-1.05,117,inactive
FANK1 (GeneID 92565),3,-0.0971,80,0.065,87.8,inactive
GNS (GeneID 2799),1,-0.0105,81.7,-0.325,99.4,inactive
GNS (GeneID 2799),2,0.319,88.2,-0.547,114,inactive
GNS (GeneID 2799),3,2.08,123,1.02,105,inactive
CENPW (GeneID 387103),1,-1.39,54.2,-1.46,88.9,inactive
CENPW (GeneID 387103),2,-0.701,67.9,-0.139,78.8,inactive
CENPW (GeneID 387103),3,-1.4,54.1,0.489,53.2,inactive
APCDD1L (GeneID 164284),1,-0.776,66.4,-0.0213,74.7,inactive
APCDD1L (GeneID 164284),2,-0.815,65.7,-1.22,101,inactive
APCDD1L (GeneID 164284),3,-0.0815,80.3,-0.273,96.4,inactive
B3GALNT1 (GeneID 8706),1,-0.0407,81.1,-0.715,109,inactive
B3GALNT1 (GeneID 8706),2,-1.33,55.5,-1.47,91.5,inactive
B3GALNT1 (GeneID 8706),3,-1.75,47.1,-2.22,94.4,inactive
ZNF667 (GeneID 63934),1,-0.483,72.3,0.714,66.9,inactive
ZNF667 (GeneID 63934),2,-2,42,-2.21,84.1,inactive
ZNF667 (GeneID 63934),3,-0.261,76.7,0.438,76.4,inactive
